Laboratory results published in article PMC9334288.
No constants are given. Whether binding was seen depends on the method and setting. Binding seen in cells or lysates may run through a third protein. For part of these data: A result given as binding can be weak or reduced; the word gives no strength.

Protein sequences, listed by entry. Tags and fused reporters are not part of them. Lines headed by an entry give the natural chain unless they say otherwise; changes in a name come on top.
UniProt P49758: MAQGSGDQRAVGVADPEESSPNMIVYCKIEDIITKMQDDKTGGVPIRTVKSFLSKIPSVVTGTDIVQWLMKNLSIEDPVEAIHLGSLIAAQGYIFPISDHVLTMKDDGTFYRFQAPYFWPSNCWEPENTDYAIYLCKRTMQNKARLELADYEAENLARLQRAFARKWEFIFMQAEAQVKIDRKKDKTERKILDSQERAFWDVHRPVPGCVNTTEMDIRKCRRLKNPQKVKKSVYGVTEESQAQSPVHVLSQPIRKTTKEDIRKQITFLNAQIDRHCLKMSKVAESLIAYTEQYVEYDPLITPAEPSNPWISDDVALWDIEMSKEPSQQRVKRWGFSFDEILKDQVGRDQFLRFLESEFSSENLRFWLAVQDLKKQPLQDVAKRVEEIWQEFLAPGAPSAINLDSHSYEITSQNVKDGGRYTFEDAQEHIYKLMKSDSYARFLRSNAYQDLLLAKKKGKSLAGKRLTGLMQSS
UniProt Q13485: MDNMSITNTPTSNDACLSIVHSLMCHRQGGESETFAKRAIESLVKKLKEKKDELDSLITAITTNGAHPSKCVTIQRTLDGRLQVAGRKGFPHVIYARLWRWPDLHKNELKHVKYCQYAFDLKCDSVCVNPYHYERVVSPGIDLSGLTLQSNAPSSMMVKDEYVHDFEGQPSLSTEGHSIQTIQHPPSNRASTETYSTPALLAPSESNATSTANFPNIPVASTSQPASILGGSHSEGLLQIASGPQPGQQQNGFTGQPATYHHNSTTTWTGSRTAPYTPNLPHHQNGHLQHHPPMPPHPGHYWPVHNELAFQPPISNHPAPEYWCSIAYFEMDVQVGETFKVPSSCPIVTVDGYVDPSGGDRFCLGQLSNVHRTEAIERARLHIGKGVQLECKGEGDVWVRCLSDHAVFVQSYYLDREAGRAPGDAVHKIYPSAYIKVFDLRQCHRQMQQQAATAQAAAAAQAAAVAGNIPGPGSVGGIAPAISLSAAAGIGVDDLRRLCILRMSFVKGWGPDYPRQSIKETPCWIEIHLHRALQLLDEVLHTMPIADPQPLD

How the values were obtained:
Assay in all cases: co-IP; 293T cells co-transfected with Flag-tagged SMAD4 and various HA-tagged RGS6 mutants; IP of lysates with anti-HA antibody
[1] = target: HA-tagged RGS6 mutant lacking the RGS domain (human) (UniProt P49758)
[2] = target: HA-tagged RGS6 mutant missing the DEP domain (human) (UniProt P49758)
[3] = target: HA-tagged RGS6(ΔGGL), mutant RGS6 that lacks the GGL domain (human) (UniProt P49758)

- binding [1]: binds
- binding [2]: binds
- binding [3]: no binding
Substance: Flag-tagged SMAD4 (from UniProt Q13485 1-552)
